Assay [1] addresses EZH2 (overexpressed in HEK293T cells) (UniProt Q15910). In words: co-IP; p62 and EZH2 overexpressed alone or together in HEK293T cells; IP buffer 150 mM NaCl, 50 mM Tris-HCl pH 8.0, 1% Nonidet P-40; antibodies and Protein A/G magnetic beads at 4 °C overnight; Western blot. (In western blotting, separated proteins are transferred to a membrane and probed.)
For assay [2], the target named is EZH2 (in 293T cells, co-IP of Figure 5E) (UniProt Q15910). Description: co-IP; SMURF2 and EZH2 in 293T cells (endogenous or overexpressed not stated); IP buffer 150 mM NaCl, 50 mM Tris-HCl pH 8.0, 1% Nonidet P-40; Protein A/G magnetic beads; Western blot.
For assay [3], the target named is Enhancer of zeste homolog 2 (EZH2) (human (endogenous in HN6 and CAL27)) (UniProt Q15910). In words: co-IP; endogenous proteins in HN6 and CAL27 lysates; IP buffer 150 mM NaCl, 50 mM Tris-HCl pH 8.0, 1% Nonidet P-40; antibodies and Protein A/G magnetic beads at 4 °C overnight; Western blot.

The chains behind the UniProt entries cited, without tags or fusion partners.
UniProt Q15910: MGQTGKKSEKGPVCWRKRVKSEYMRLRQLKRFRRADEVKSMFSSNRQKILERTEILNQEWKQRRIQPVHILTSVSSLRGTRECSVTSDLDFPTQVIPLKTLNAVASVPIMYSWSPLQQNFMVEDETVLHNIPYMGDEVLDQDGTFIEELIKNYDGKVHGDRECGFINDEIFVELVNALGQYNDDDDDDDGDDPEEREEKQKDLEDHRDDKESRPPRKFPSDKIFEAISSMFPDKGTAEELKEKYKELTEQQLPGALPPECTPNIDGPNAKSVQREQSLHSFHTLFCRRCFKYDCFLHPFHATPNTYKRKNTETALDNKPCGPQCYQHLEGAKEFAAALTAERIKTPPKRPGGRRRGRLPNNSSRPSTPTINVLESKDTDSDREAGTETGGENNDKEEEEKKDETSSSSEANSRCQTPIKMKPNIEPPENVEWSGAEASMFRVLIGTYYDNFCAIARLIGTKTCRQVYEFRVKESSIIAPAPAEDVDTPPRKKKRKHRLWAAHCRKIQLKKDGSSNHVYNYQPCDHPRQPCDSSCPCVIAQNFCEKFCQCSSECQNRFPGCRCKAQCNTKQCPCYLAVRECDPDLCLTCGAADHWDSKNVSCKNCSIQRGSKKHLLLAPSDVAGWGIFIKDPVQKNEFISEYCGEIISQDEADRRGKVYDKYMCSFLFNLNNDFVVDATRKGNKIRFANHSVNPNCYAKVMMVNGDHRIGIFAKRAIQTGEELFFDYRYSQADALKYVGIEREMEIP
UniProt Q9HAU4: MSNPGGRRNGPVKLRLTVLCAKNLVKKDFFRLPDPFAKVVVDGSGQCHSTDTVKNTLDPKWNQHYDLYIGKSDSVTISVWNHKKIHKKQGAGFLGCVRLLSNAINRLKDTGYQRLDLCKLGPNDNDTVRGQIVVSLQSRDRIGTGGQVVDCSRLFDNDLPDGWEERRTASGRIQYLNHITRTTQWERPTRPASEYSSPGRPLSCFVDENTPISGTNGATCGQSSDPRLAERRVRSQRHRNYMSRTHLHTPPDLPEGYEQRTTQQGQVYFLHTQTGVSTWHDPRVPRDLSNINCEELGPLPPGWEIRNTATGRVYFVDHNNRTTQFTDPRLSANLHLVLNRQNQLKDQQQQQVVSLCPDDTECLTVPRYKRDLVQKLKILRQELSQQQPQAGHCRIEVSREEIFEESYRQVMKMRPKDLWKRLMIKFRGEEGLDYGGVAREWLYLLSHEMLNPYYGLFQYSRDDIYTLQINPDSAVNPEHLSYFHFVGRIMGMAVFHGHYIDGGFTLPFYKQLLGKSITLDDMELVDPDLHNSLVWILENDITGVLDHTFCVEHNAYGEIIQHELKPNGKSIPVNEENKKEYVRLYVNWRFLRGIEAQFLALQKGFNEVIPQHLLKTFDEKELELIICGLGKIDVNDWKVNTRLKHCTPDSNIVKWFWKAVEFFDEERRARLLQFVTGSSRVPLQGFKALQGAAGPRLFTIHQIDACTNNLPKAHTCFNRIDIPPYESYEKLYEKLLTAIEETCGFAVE

No constants are given. Whether binding was seen depends on the method and setting. In cells and extracts the contact can be indirect. Some binding calls cover weakened binding; strength is not graded here.

The source of these data is publication PMC12561351.

“p62 (overexpressed in HEK293T cells) (from UniProt Q13501 1-440)”: the binding result in assay [1] is given as “binds”.

Take “SMURF2 (in 293T cells, co-IP of Figure 5E) (from UniProt Q9HAU4 1-748) (enzyme)”: the binding entry in assay [2] is on record as “binds”.

In the case of p62 (from UniProt Q13501 1-440), the binding entry in assay [3] was “binds”.
